# No constants are given. Whether binding was seen depends on the method and setting. Binding seen in cells or lysates may run through a third protein. Binding can be weak; no strength is given.
# The chains behind the UniProt entries cited, without tags or fusion partners.
# UniProt Q96EB6: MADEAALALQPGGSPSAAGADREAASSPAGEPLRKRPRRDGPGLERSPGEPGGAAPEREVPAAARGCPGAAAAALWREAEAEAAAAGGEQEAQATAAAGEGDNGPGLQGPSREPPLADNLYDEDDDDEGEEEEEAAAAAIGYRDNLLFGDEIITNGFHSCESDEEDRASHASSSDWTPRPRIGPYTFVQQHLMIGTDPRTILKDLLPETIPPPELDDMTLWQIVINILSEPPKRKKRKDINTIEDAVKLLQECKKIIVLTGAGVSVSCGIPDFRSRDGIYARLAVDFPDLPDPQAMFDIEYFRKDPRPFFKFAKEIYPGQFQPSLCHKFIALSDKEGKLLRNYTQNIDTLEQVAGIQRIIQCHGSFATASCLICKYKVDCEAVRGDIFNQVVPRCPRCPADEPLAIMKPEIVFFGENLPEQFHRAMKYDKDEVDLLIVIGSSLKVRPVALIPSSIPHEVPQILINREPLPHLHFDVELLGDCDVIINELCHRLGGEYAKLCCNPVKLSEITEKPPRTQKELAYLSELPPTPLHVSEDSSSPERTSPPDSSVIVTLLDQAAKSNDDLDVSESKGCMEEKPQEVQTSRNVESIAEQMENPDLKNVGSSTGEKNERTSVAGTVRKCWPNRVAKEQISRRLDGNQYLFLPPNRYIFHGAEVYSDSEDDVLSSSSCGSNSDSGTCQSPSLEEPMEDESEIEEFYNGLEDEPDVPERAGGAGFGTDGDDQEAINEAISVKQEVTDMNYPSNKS
# UniProt P40763: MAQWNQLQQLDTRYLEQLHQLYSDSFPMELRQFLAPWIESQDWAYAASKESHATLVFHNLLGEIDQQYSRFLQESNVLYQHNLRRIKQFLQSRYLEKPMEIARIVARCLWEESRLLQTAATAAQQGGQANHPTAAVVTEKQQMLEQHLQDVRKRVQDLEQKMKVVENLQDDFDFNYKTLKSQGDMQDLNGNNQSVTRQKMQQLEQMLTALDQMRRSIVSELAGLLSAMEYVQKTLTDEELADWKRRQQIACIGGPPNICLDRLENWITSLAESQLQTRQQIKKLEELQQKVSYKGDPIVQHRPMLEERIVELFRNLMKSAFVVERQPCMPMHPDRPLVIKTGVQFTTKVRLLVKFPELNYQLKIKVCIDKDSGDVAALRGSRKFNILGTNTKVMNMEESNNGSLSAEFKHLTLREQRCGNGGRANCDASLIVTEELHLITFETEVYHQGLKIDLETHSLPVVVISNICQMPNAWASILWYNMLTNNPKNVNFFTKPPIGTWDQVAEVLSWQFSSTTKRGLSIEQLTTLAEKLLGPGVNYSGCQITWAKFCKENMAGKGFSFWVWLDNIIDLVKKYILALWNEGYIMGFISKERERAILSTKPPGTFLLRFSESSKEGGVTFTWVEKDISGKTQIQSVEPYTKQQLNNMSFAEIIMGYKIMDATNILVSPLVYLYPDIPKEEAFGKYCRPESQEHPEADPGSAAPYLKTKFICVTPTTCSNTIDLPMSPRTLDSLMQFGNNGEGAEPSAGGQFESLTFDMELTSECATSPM
# Legend:
# [1] = target: SIRT1 (human (endogenous in HAVSMCs)) (UniProt Q96EB6); assay: co-IP; endogenous co-immunoprecipitation from HAVSMC lysates; antibody 3 hours, protein A/G magnetic beads 12 hours at 4 °C; some panels with 20 ng/mL PDGF-BB, or cells transfected with Flag-Septin4 plasmid or Septin4-siRNA
# [2] = target: Signal transducer and activator of transcription 3 (human (endogenous in HAVSMCs)) (UniProt P40763); assay: as above
substance,measurement,setting,value
Septin4 (from UniProt O43236-1),binding,[1],binds
same,binding,[2],binds
